Results published in US20240000753A1, “METHODS AND COMPOSITIONS TO INCREASE LIFESPAN AND HEALTHSPAN BY MIMICKING THE EFFECTS OF TIME-RESTRICTED FEEDING” (The Trustees of Columbia University in the City of New York, priority 2020, published 2024).
At least one compound was matched to its structure with a doubt left.

Tested on: Drosophila
Assay: Lifespan analysis of flies fed RU486
Assay type: in vivo
Details: RU486 alone fed to per01 mutants on either ad lib or iTRF diets (results not shown)
Description: All drugs were supplemented into cooled (65° C.) liquid adult medium (containing 3% yeast extract) following preparation to the following final concentration(s): RU486 (Cayman Chemical) was dissolved in ethanol was supplemented into medium after day 5 of eclosion at a final concentration of 100 μg/mL (with the exception of daGS>UAS-atg1 and controls, 0.5 μg/mL) vehicle controls were supplemented with same volume of ethanol alone. Timed RU486 feeding of daGS>UAS-atg1 consisted of flies being fed 0.5 μg/mL in standard adult media or fasting media only during the fasting phase, then flipped to vehicle control food the following morning only from days 10-40 of adulthood. Vehicle only controls were flipped at the same time for consistency. For gut microbe clearance, the medium contained 500 μg/mL ampicillin, 50 μg/mL tetracycline, and 200 μg/mL rifamycin in 50% ethanol. Same volume of 50% ethanol alone was used as the vehicle control. Drosophila were reared from embryos in low-density bottles with standard yeast cornmeal-agar media listed above (Archon Scientific) Newly eclosed flies (˜24 hours) were collected onto adult medium w/3% yeast extract and allowed to mate for 48 hours. […] Death was scored at time of flipping, and lifespan compared by log-rank analysis.

CC#C[C@]1(O)CC[C@H]2[C@@H]3CCC4=CC(=O)CCC4=C3[C@@H](c3ccc(N(C)C)cc3)C[C@@]21C [RU486] was tested, and the effect on lifespan was “no effect on lifespan”.
